Test results as given in PMC9559116.
No constants are given. Whether binding was seen depends on the method and setting. Binding seen in cells or lysates may run through a third protein. Here binding means that the protein was enriched with, or labelled near, the bait; the list need not be complete. For part of these data: Sequences can lack the tags named with a protein.

By UniProt entry, the sequences of proteins in these tests, tags left out. Where a name states a change or a piece, a line headed by the entry shows the natural chain unless it says otherwise.
UniProt Q9NVM9: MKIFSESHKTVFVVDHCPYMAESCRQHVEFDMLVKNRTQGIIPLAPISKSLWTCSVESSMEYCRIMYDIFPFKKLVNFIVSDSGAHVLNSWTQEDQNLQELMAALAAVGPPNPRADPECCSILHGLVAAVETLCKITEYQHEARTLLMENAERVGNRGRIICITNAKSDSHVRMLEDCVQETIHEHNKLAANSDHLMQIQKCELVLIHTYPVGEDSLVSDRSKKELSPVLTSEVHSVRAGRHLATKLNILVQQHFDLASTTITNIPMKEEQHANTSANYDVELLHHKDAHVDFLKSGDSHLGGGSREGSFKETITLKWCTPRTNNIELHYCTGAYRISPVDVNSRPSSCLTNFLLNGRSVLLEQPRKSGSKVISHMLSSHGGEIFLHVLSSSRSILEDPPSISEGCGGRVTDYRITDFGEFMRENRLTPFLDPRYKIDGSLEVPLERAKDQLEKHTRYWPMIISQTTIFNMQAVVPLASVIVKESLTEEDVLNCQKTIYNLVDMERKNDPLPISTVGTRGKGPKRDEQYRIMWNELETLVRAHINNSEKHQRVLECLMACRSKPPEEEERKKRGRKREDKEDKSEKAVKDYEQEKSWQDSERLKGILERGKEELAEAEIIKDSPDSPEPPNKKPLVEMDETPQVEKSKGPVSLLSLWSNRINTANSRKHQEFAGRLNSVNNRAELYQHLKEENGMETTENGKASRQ
UniProt Q9NVR2: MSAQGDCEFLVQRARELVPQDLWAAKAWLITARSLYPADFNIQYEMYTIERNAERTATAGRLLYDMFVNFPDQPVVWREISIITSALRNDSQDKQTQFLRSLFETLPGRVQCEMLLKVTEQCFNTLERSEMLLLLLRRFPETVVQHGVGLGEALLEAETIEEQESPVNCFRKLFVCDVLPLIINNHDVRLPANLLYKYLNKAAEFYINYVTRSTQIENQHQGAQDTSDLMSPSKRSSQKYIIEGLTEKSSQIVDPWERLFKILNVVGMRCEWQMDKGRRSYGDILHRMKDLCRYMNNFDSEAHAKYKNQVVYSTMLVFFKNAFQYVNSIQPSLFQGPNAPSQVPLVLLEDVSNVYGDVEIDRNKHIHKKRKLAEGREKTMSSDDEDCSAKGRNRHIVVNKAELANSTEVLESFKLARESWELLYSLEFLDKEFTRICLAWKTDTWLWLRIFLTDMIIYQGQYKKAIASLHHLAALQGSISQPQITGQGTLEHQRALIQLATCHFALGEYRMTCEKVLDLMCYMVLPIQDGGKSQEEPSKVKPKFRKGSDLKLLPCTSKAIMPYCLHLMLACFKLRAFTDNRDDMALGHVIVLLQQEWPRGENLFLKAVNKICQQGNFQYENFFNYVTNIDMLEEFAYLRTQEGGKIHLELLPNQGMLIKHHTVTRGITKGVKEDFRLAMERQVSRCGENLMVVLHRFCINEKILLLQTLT

B1: endogenous dIntS10 (Drosophila S2 nuclear extract) (protein, UniProt Q9VZM7 1-631)
chain: MPSQEENELYMVKEAQRLRKSDPCAAMAWIITAKTLYPNAFNLQYEAYLLERDAQNYEEAAKCFSAIATNFQNQHTELWQEINSLTNALRNENETTPEHEFYVKMYKHLTPEVQHNIFMHTINHSADNLERIYIYILMFNKFPKSAITQAPRLLEMLAEGMKTEPDLYQRILVEEVLPMIQNKPPELSPNLACRLYTSSLEFYLRQIMDESDTADAWKNIFKVLMICGQMMGWEPFLPFSKHVNQNVYWEKLVDILSGSPAGSSQVLFYATTLFIYSLHGYIRNCKLRIEDADVTHVLVEGFMEWSPEGDGSEVPSMEPPKFSLTTAISPELSKAFLHAAQCWQLLNTDQFQRDFSQLMLALPLAPWISRFLFDLAIYFGHRDEANKLMADMTTQSSLVQSLQILSLNLMQGSMTLQGFQCILKILSELPTTQGQLLENMSLKGHRHMVFLPLTRSALVQYCVGAIISRLSRKVFEPNVPDRLLGDILVLQQLNLLNDVLLTQQIFNLIKQRKSFNLRTLSTYIINIDLLEELSHIWNSQQEDNFELTSSPNSSGTPTATTVAGGSQSRRIGTRGADKGARDEFRAITRQQIARCNENVITLLANFINQEHLMLAQHIFGISQPVETIVIK
B2: endogenous dIntS14 (Drosophila S2 nuclear extract) (protein, UniProt Q9VPY0 1-587)
chain: MPTLIALDASLSMLRPVPGRNEHTYQSLATKGIQHLLDNLTAAGKLEHVALLSYSTTAELKVDFTRDYDQVRQAVKKVEPVDKACLMSMLKAVVSIMSPWGNQNILQVVVFTDCGLGFGNTSITGFLEAYAEKESEPEFGFLKTLANYNLNFICLGLHGDYYFTRGLAVYQQLLDKVSLKGQLFMTKPAKSSDAVEGNPNPNPNPSHKSELGRTTVFELIERLCEASYKSSEVTLKCGSYFRMEASVLLWPPTAPYEQKSHIFGREPTIRHTDQKIEVCGFLSLSDIGSPATLSRHWVLPKVEREKSGSSRRSGNLSAAAKPPKLNLDTSNPNYELEKLEADIKEFYAKDSKDTEESGDDDVTIVLKPGPQTEQQKENLCVLLHGALKMENMAALVRVGDKWYGFIYAFTDSKKKSNLMLNILPPGTNVIPWLGDLESLGFPEDLAPGETASFPVRADRRSYSQSSVVWIRQASLQSDVQKVLRHAKKMPDKTQHFYKELNRIRRAALALGFVELLEALAMLLEKECAHLSLNGASNDCTLQLQHAATELRKTSNRDMKSMIVPLQKVGASDAGSTAATAPAPAYMY

Tests used:
[1] = target: FLAG-INTS13 Family 2 mutant (p.S652L) (HEK-293T stable line) (human) (UniProt Q9NVM9); assay: co-IP + affinity purification with mass spectrometry; anti-FLAG M2 agarose on nuclear extract of HEK-293T lines expressing FLAG-INTS13 wt, F1 or F2 (48 h doxycycline); 20 mM HEPES pH 7.4, 150 mM KCl, 10% glycerol, 0.1% NP-40, 4 °C; LC/MS and western blot; naive cells as control
[2] = target: T1, FLAG-dIntS13 wild type (Drosophila S2 stable line) (Drosophila) (UniProt Q9VEX5); assay: co-IP + affinity purification with mass spectrometry; anti-FLAG affinity resin on nuclear extract of Drosophila S2 lines expressing FLAG-dIntS13 wt, dF1 or dF2 (copper-induced); LC/MS and western blot; naive S2 cells as control
T1 sequence: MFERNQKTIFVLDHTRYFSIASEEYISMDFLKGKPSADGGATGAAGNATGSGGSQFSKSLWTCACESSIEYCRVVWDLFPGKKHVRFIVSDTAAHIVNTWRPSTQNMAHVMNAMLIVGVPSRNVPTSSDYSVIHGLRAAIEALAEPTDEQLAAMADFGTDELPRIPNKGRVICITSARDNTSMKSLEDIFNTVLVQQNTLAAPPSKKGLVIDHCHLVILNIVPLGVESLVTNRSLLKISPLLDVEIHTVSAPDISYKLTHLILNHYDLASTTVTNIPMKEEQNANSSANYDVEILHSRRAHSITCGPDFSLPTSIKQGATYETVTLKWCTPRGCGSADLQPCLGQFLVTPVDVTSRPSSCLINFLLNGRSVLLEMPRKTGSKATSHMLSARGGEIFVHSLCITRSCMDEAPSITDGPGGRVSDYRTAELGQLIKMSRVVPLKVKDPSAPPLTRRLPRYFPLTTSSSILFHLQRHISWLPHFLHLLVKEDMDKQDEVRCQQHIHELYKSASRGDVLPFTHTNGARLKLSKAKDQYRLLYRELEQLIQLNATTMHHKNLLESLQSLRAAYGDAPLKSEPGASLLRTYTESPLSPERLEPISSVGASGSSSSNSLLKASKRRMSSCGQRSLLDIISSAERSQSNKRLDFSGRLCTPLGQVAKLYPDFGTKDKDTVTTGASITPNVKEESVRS

Row | Molecule | binding [1] | binding [2]
1 | endogenous INTS10 (HEK-293T nuclear extract) (from UniProt Q9NVR2 1-710) | binds | 
2 | B1 |  | binds
3 | B2 |  | binds
